Experimental data taken from PubChem BioAssay AID1671190 (National Center for Advancing Translational Sciences (NCATS), 2021).
Several values for one entry are separate records, joined by “and”; a condition that tells them apart may be missing. Equal values may be shown once. Hit rate of the full screen: of about 580,000 compounds, about 6,100 (1.1%) were called active. The inconclusive results got no clear call from the source; some entries with a clear call stand among them for comparison. Calls follow the shape of the dose curve; as a rule, active = well fitted inhibition curve with a large enough effect; inconclusive = small, poorly fitted or top-dose-only effect, or another doubt; inactive = no such curve, though single readings can be large or run the other way. Potencies beside an inconclusive call are fits to weak or partial responses and may not hold up.

Protein sequences, listed by entry. Tags and fused reporters are not part of them.
UniProt P18054, whole entry, looked up: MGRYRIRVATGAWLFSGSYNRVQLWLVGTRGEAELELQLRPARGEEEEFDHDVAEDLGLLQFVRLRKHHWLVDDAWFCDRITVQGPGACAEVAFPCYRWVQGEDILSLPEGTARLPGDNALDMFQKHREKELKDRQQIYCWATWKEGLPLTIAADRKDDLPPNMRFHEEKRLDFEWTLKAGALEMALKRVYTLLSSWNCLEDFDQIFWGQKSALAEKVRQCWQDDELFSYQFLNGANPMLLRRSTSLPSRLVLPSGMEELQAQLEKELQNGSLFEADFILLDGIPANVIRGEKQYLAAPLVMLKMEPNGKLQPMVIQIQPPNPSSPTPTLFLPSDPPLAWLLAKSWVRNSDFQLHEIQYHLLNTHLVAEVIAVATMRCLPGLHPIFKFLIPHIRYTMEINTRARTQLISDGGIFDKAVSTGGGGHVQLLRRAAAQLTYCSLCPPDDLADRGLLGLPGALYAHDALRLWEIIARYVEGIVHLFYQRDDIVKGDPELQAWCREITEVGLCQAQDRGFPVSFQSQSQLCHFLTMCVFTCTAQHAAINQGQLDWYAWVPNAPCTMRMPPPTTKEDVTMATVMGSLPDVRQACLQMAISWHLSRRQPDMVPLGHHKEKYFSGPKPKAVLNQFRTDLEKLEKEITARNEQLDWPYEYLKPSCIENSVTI

target: Polyunsaturated fatty acid lipoxygenase ALOX12 (Homo sapiens) (UniProt P18054); test: Primary qHTS assay for inhibitors of human arachidonate 12S-lipoxygenase (ALOX12): Round 2; details: purified 12hLO, xylenol orange hydroperoxide absorbance; activity change, negative = inhibition: at 108 µM (top of the series) unless noted
Summary of the method: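 Purified human 12hLO at 150 nM in 25 mM Hepes, 0.01% Triton X-100, pH 7.0, preincubated 15 min at room temperature with compound. Reaction started with 40 uM arachidonic acid, 30 min at room temperature. Hydroperoxide measured by Fe-xylenol orange, 573/405 nm absorbance ratio.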
% is scaled to controls: 0 for no effect and ±100 for the full control effect; potency is read from the fitted curve at half-maximal effect.

SMILES | activity change, negative = inhibition | Potency
CCCCNC(=O)CC(c1cccc(OC)c1)c1c[nH]c2ccccc12 (stereo not given) | inactive: -0.773% | –
C=CCNc1nc(C(=O)OCc2ccc(C#N)cc2F)cs1 | – | inconclusive: 89.1 µM [inhibitor, single point]
CC(C)(C)OC(=O)C1=C(CO)CS[C@@H]2[C@H](NC(=O)Cc3ccccc3)C(=O)N12 | – | inconclusive: 39.8 µM [inhibitor, partial curve, poor fit]
O=C(Cc1cccs1)Nc1cc(S(=O)(=O)N2CCCCC2)ccc1Cl | inactive: 0% | –
CC(Oc1ccc(F)cc1)C(=O)N1CCC(c2nc3ccccc3o2)CC1 (stereo not given) | inactive: -23% | –
O=C(CSc1nnc(-c2cccnc2)n1-c1ccccc1)c1c[nH]c(C(=O)N2CCCC2)c1 | inactive: 1.11% | –
CC1(C(=O)NS(=O)(=O)c2ccc(Cl)cc2)CCN1C(=O)c1cccc(F)c1 (stereo not given) | – | inconclusive: 50.1 µM [inhibitor, partial curve, poor fit]
CCOC(=O)Cc1csc(/N=C/c2c(O)n(-c3ccc(C)c(C)c3)c(=O)c3ccccc23)n1 | inactive: 10.1% | –
C=C(C)Cn1c(N2CCN(Cc3ccccc3F)CC2)nc2c1c(=O)[nH]c(=O)n2C | inactive: 6.98% | –
COC(=O)/C(=C\c1ccc([N+](=O)[O-])o1)NC(=O)c1ccccc1 | – | inconclusive: 5.01 µM [inhibitor, full curve, poor fit]
Cc1ccc(-c2cc(C(=O)NCCN(C)C)c3ccccc3n2)cc1C | – | inconclusive: 44.7 µM [inhibitor, single point]
CC(C)(C)OC(=O)N[C@@H](CC(=O)OCc1ccccc1)C(=O)O | – | inconclusive: 11.2 µM [inhibitor, full curve, poor fit] and inconclusive: 39.8 µM [inhibitor, partial curve, poor fit]
CC(C)c1nc(=S)n(-c2ccccc2)[nH]1 | – | inconclusive: 31.6 µM [inhibitor, single point]
O=c1cc(-c2ccc(OCc3ccccc3)cc2)oc2cc(OCc3ccccc3)cc(OCc3ccccc3)c12 | – | active: 35.5 µM
COc1ccc(Nc2nc(-c3sc(N)nc3C)cs2)cc1 | – | inconclusive: 35.5 µM [inhibitor, partial curve, poor fit]
O=S(=O)(c1ccc(-c2csc(Nc3ccccc3)n2)cc1)N1CCOCC1 | inactive: -7.24% | –
O=C(O)Cc1c(O)ccc2ccccc12 | – | inconclusive: 56.2 µM [inhibitor, partial curve, poor fit]
Cc1sc2ccc3sccc3c2[n+]1C | – | active: 11.2 µM
CCN(CC(=O)Nc1c(F)cccc1F)C(=O)c1ccc(NC(=O)CC2SC(N3CCCC3)=NC2=O)cc1 (stereo not given) | – | inconclusive: 35.5 µM [inhibitor, partial curve, poor fit]
Cc1ccc(C2(c3ccc(O)cc3)CCCCC2)cc1 | inactive: -86.4% | –
CC1(C)CC2(CC(c3ccc(F)cc3)c3ccc(O)cc3O2)NC(=S)N1 (stereo not given) | – | inconclusive: 126 µM [inhibitor, single point]
Cc1ccc2c(c1)C(=C(C#N)C#N)C(=O)N2CCN1CCOCC1 | – | inconclusive: 44.7 µM [inhibitor, partial curve, poor fit]

SMILES | activity change, negative = inhibition | Potency
CCc1ccc(S(=O)(=O)N2CC(COC)C3(CCNCC3)C2)cc1 (stereo not given) | inactive: 4.36% | –
CC1=C(C(=O)N(C(C)C)C(C)C)CC(CC(=O)NCC2CCCCC2)C(=O)N1Cc1ccc(F)cc1 (stereo not given) | inactive: -24.7% | –
COc1ccc(C(=O)N/N=C(\CCC(=O)O)c2ccc(C(C)(C)C)cc2)cc1OC | – | inconclusive: 3.16 µM [inhibitor, full curve, poor fit]
Cc1nc(N2CCN(Cc3ccc4c(c3)OCO4)CC2)[nH]c(=O)c1Cc1cccc2ccccc12 | – | inconclusive: 50.1 µM [inhibitor, partial curve, poor fit]
O=C1CC(c2ccc(F)c(F)c2)c2cc(Br)c3ccccc3c2N1 (stereo not given) | – | inconclusive: 141 µM [inhibitor, single point]
CC(C)OC(=O)Nc1ccc2c(c1)N(C(=O)N1CCN(C)CC1)c1ccccc1CC2 | – | inconclusive: 0.316 µM [inhibitor, full curve, poor fit]
CC(C)N1C(=O)CO[C@H](c2ccc(NC(=O)c3ccccc3)cc2)[C@H]1CO | inactive: 52% [at 176 µM] | –
COc1ccc(/C=C2\SC(=S)N(CCCC(=O)N3CCN(C)CC3)C2=O)cc1OC | inactive: -16.8% | –
CCn1c(SCC(=O)Nc2cccc(NC(C)=O)c2)nc2c([nH]c3ccccc32)c1=O | – | inconclusive: 112 µM [inhibitor, single point]
Nc1c(N(CCO)C(=O)/C=C/c2ccco2)c(=O)[nH]c(=O)n1Cc1ccccc1 | – | inconclusive: 50.1 µM [inhibitor, partial curve, poor fit]
c1ccc2cc(C3=NCCN3)ncc2c1 | – | inconclusive: 5.62 µM [inhibitor, full curve, poor fit]
CCCC[C@@H]1CNC(=S)N1CCc1cccc(F)c1 | – | inconclusive: 22.4 µM [inhibitor, partial curve, poor fit]
CC(=O)N1c2c(cc(Br)cc2S(=O)(=O)N2CCN(c3ccccc3F)CC2)CC1C (stereo not given) | inactive: 5.91% | –
CC(NC(=O)CNC(=O)c1cccs1)c1ccncc1 (stereo not given) | – | inconclusive: 35.5 µM [inhibitor, partial curve, poor fit]
CCCN(C1CCS(=O)(=O)C1)S(=O)(=O)c1ccc2ccccc2c1 (stereo not given) | – | inconclusive: 141 µM [inhibitor, single point]
COc1ccccc1-c1cnn2c1NC(=O)CC2C(=O)Nc1ccc(F)cc1 (stereo not given) | inactive: -0.367% | –
CC(C)[C@H]1CN=C2N(CCNC(=O)CCC3CCCCC3)[C@H](Cc3ccc(O)cc3)CN21 | – | inconclusive: 44.7 µM [inhibitor, partial curve, poor fit]
O=C1c2ccccc2NC(c2ccc(-c3ccc(Br)cc3)o2)N1O (stereo not given) | – | active: 20 µM
CCN(C(=O)c1nn(-c2ccc(C)cc2)c(=O)c2c1c1ccccc1n2C)c1ccc(F)cc1 | inactive: -2% | –
O=C(Cn1ncc2c([nH]c3ccccc32)c1=O)NCc1cccc(Cl)c1 | – | inconclusive: 100 µM [inhibitor, partial curve, poor fit]
Cc1onc(-c2ccccc2)c1C(=O)Nc1ccc(N2CCOCC2)cc1 | – | inconclusive: 44.7 µM [inhibitor, single point]
O=C(Nc1cccc2ncccc12)C12CC3CC(CC(C3)C1)C2 | – | inconclusive: 35.5 µM [inhibitor, single point]

5 of the compounds above, in markdown:

| SMILES | activity change, negative = inhibition | Potency |
| --- | --- | --- |
| CCCC[C@@H]1CNC(=S)N1CCc1cccc(F)c1 | – | inconclusive: 22.4 µM [inhibitor, partial curve, poor fit] |
| CC(=O)N1c2c(cc(Br)cc2S(=O)(=O)N2CCN(c3ccccc3F)CC2)CC1C (stereo not given) | inactive: 5.91% | – |
| CC(NC(=O)CNC(=O)c1cccs1)c1ccncc1 (stereo not given) | – | inconclusive: 35.5 µM [inhibitor, partial curve, poor fit] |
| CCCN(C1CCS(=O)(=O)C1)S(=O)(=O)c1ccc2ccccc2c1 (stereo not given) | – | inconclusive: 141 µM [inhibitor, single point] |
| COc1ccccc1-c1cnn2c1NC(=O)CC2C(=O)Nc1ccc(F)cc1 (stereo not given) | inactive: -0.367% | – |

(next part)

SMILES | activity change, negative = inhibition | Potency
COc1ccc(N=Nc2nc(-c3ccccc3)c(-c3ccccc3)[nH]2)cc1 | – | inconclusive: 50.1 µM [inhibitor, partial curve, poor fit]
Cc1c(O)ccc(C(=O)CN2CCN(c3ccccc3)CC2)c1O | – | inconclusive: 50.1 µM [inhibitor, partial curve, poor fit]
O=[N+]([O-])c1cccc(N/N=C/c2cccc(Br)c2)c1 | – | inconclusive: 17.8 µM [inhibitor, partial curve, poor fit]
CCOC(=O)c1cc(-c2ccc(F)cc2)n(CCC(=O)NCc2ccccc2OC)c1C | – | inconclusive: 50.1 µM [inhibitor, partial curve, poor fit]
O=C1CC2(CCN(CC3CCNC3)C2)Nc2ccccc2N1 (stereo not given) | – | inconclusive: 25.1 µM [inhibitor, single point]
Cn1cccc1C(=O)Nc1ccc(Cl)c(S(=O)(=O)N2CCCCC2)c1 | – | inconclusive: 35.5 µM [inhibitor, partial curve, poor fit]
CC(=O)Nc1ccc(S(=O)(=O)N2CCN(c3nnnn3-c3ccccc3)CC2)cc1 | – | inconclusive: 89.1 µM [inhibitor, single point]
O=C(c1cccc(F)c1)N1CCC(c2c[nH]c3ccccc23)(c2c[nH]c3ccccc23)CC1 | – | inconclusive: 141 µM [inhibitor, partial curve, poor fit]
CCOc1ccc(NC(=S)NC(=O)c2cncc(Br)c2)cc1 | – | inconclusive: 7.08 µM [inhibitor, partial curve, poor fit]
COc1ccc(CC(=O)Nc2ccc(C(C)=O)cc2)cc1 | – | inconclusive: 50.1 µM [inhibitor, partial curve, poor fit]
CN(C)CCCn1c(=O)n(-c2ccc(Cl)cc2)c(=O)c2c3c(sc21)CN(C)CC3 | inactive: -24.6% | –
Cc1cccc(C(=O)N2C[C@@H](COc3ccccc3)[C@H](C(N)=O)C2)n1 | inactive: 35.8% | –
CCS(=O)(=O)N1CCC(C(=O)Oc2ccc(Br)cc2)CC1 | – | inconclusive: 15.8 µM [inhibitor, partial curve, poor fit]
Clc1ccc(-n2ncc3c(N4CCCCCC4)ncnc32)cc1 | inactive: 1.38% | –
O=C(Cc1c(F)cccc1Cl)NCc1cccc(C(=O)Nc2ccccc2)c1 | inactive: 37.4% | –
O=C1CC(c2ccco2)CC2=C1C1c3ccccc3C(=O)N1c1ccccc1N2 (stereo not given) | inactive: -13.4% | –
CCn1ncc(N2CCC(NC(=O)COc3ccc(F)cc3)CC2)cc1=O | – | inconclusive: 8.91 µM [inhibitor, partial curve, poor fit]
COc1ccc(C(=O)CNc2cccc(F)c2)cc1 | – | inconclusive: 15.8 µM [inhibitor, partial curve, poor fit]
COC(=O)C1=C(C(=O)OC)C(c2ccc(OC)c(OC)c2)c2sc(=O)[nH]c2S1 (stereo not given) | – | inconclusive: 50.1 µM [inhibitor, partial curve, poor fit]
O=C1CC2(C(=O)Nc3ccccc32)c2sc(C(=O)O)c(-c3ccccc3)c2N1 (stereo not given) | – | inconclusive: 39.8 µM [inhibitor, partial curve]
CC(C)(C)c1ccc(OCc2nn3c(CN4CCOCC4)nnc3s2)cc1 | – | inconclusive: 50.1 µM [inhibitor, partial curve, poor fit]
